Measurements taken from patent US20110059469A1 (UNIVERSITY OF TOKYO, published 2011).
These are yes or no findings as the source states them, for the method shown. Some entries that bind do so weakly or less than the wild type.

B1: AE1-16 (antibody, V domains shown)
VH: EVQLQQSGPELVKPGASVKISCKASGYSFTGYFMNWVKQSHGKSLEWIGRINPYNGDTFYNQKFKGKATLTVDKSSNTAHMELRSLTSEDSAVYYCARVLFLDFDDPYLMDYWGQGTSVTVSS
VL: ENVLTQSPAIMSATLGEKVTMSCRATSNVKYMYWYQQKSGASPKLWIYYTSNLASGVPARFSGSGSGTSYSLTISSVEAADAATYYCQQFTSSPSTFGAGTKLELK
notes: also called anti-human CLDN6 monoclonal antibody AE1-16
B2: AE49-11 (antibody, IgG2b, V domains shown)
VH: EVQLQQSGPELVKPGASVKISCKASGYSFTGYFMNWVKQSHGKSLEWIGRINPYNGDTFYNQKFKGKATLTVDKSSSTAHMELRSLTSEDSAVYYCARVLFLDFDDPYLMDYWGQGTSVTVSS
VL: ENVLTQSPAIMSATLGEKVTMSCRATSNVKYMYWYQQKSGASPKLWIYYTSNLASGVPARFSGSGSGTSYSLTISSVEAADAATYYCQQFTSSPSTFGAGTKLELK
notes: also called AE49-11 antibody; original IgG2b antibody
B3: AB3-1 (antibody, V domains shown)
VH: EVQLQQSGPELVKPGGSMKISCKASGYSFTGYTMNWVKQSHGKNLEWIGLINPYNGGISYNQKFKDKATLTMDKSSSTAYMELLSLTSEDSAIYFCARDYRYEGFDYWGQGTLVTVSA
VL: QIVLTQSPAIMSASLGERVTMTCTASSVVISTYLHWYQQKPGSSPKLWIYSTSNLASGVPVRFSGSGSGTSYSLTISSMEAEDAATYYCHQYHRSPWTFGGGTKLEIK
notes: also called anti-human CLDN6 monoclonal antibody AB3-1
B4: AE49-11/mIgG2a (antibody, V domains shown)
VH: EVQLQQSGPELVKPGASVKISCKASGYSFTGYFMNWVKQSHGKSLEWIGRINPYNGDTFYNQKFKGKATLTVDKSSSTAHMELRSLTSEDSAVYYCARVLFLDFDDPYLMDYWGQGTSVTVSS
VL: ENVLTQSPAIMSATLGEKVTMSCRATSNVKYMYWYQQKSGASPKLWIYYTSNLASGVPARFSGSGSGTSYSLTISSVEAADAATYYCQQFTSSPSTFGAGTKLELKR

Key:
[1] = biological target: T1, human Claudin6 (CLDN6) (human) (UniProt P56747); test: flow cytometry on ABC-1 and AGS cancer cells
T1 sequence: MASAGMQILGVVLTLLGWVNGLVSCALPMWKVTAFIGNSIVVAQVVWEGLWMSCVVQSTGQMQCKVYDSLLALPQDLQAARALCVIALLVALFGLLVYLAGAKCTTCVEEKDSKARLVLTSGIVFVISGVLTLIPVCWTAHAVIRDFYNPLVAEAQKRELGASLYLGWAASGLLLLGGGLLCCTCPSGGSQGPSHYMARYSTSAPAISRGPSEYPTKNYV

[2] = biological target: T1, human Claudin6 (CLDN6) (human); test: flow cytometry on Ba/F3 cells forced to express human CLDN6; parent Ba/F3 not bound
[3] = biological target: T1, human Claudin6 (CLDN6) (human); test: flow cytometry on Ba/F3 cells forced to express human CLDN6
[4] = biological target: T1, human Claudin6 (CLDN6) (human); test: flow cytometry (cells not named)

Row | Binder | binding [1] | binding [2] | binding [3] | binding [4]
1 | B1 | binds | binds | binds | –
2 | B2 | binds | binds | binds | –
3 | B3 | binds | binds | binds | –
4 | B4 | – | – | – | binds
